We go through 3 substances from PMC9974998.

Protein sequences, listed by entry. Tags and fused reporters are not part of them.
UniProt Q15172: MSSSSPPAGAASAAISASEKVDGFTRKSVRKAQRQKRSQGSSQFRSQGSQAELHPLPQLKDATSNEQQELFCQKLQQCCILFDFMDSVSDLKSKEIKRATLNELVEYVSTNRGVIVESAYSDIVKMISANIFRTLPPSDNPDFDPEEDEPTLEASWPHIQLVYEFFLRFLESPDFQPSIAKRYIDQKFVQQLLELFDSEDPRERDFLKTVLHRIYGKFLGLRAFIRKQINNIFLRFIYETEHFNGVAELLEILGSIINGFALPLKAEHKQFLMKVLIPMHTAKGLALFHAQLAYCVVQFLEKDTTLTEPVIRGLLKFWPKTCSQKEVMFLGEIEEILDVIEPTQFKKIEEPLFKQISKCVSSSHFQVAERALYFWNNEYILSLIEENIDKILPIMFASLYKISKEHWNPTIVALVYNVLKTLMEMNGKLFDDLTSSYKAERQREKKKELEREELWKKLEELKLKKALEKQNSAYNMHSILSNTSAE
UniProt P30153: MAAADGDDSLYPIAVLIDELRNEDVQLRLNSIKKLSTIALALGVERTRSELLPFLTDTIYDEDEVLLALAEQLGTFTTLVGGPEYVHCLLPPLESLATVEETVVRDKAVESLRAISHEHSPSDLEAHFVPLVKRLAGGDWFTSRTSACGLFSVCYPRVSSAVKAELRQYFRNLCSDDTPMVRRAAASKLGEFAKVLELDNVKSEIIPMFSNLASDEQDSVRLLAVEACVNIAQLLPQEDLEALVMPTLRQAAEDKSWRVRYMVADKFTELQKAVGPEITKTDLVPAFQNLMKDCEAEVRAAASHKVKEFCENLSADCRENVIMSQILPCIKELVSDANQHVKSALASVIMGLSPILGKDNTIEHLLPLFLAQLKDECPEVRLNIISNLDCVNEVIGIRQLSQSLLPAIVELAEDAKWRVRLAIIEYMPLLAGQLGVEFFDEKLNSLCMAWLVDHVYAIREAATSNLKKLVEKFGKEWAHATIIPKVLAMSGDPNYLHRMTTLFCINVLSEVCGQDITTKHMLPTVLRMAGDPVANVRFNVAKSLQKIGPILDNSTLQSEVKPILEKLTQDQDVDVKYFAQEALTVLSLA

Results are given in words; binding and its absence hold for the method and conditions named. For some of these results: In cells and extracts the contact can be indirect. Some binding calls cover weakened binding; strength is not graded here.

In test [1] the target is B56α (recombinant, WT) (human) (UniProt Q15172). The experiment in a line: pull-down; GST-CIP2A incubated with the pre-assembled PP2A-B56α holoenzyme (A-B56α-PP2Ac), glutathione beads; Coomassie gel and Western blot; CIP2A also titrated against equal molar amounts of PP2A proteins; both purified. For orientation: In western blotting, separated proteins are transferred to a membrane and probed.

For test [2] the target is unchanged. As to the kind of experiment: SEC; pre-assembled A-B56α-PP2Ac trimer incubated with GST; Superdex 5/150, 28 mM Tris pH 7.2, 150 mM NaCl, 0.05% NP-40, 1.25% glycerol, 2 mM DTT, room temperature; 50 pmol of each protein; fractions by Western blot; both purified. On the technique in general: In gel filtration, larger molecules generally elute earlier.
Another test addresses GST-BubR1(647-720) (UniProt O60566). As to the kind of experiment: pull-down; competition: GST-BubR1(647-720), B56α and CIP2A(1-560)V5, 10 pmol each, glutathione bead pull-down, B56α on BubR1 by Western blot; both purified.
For test [3], the target named is GFP-tagged B56α WT (human) (UniProt Q15172). As to the kind of experiment: co-IP; GFP-trap pull-down of GFP-B56α variants from HEK-293-T lysates (NET lysis buffer, NENT100 binding, NENT150 washes); immunoblot for PP2A-A and PP2Ac.

For “PP2A-A subunit (recombinant) (from UniProt P30153 1-589)”, the binding entry in test [1] and in test [2] was “binds” each time.

On to “CIP2A(1-560)V5 His (from UniProt Q8TCG1 1-560) (domain or fragment)”, for which the binding result in the test with GST-BubR1(647-720) is “no binding (tested: 10 pmol of each protein)”.

For the substance “endogenous PP2A-A subunit (HEK-293-T) (from UniProt P30153 1-589)”, the binding result in test [3] is “binds”.
